# Measurements from the supplement of paper PMC12819154, “High-throughput peptide-centric local stability assay extends protein–ligand identification to membrane proteins, tissues and bacteria” (Nature Structural & Molecular Biology, 2025).
# Amino acid sequences for entries named in this document (tags omitted). A change or cut given only in a name is not applied to a line headed by its entry.
# UniProt Q00537: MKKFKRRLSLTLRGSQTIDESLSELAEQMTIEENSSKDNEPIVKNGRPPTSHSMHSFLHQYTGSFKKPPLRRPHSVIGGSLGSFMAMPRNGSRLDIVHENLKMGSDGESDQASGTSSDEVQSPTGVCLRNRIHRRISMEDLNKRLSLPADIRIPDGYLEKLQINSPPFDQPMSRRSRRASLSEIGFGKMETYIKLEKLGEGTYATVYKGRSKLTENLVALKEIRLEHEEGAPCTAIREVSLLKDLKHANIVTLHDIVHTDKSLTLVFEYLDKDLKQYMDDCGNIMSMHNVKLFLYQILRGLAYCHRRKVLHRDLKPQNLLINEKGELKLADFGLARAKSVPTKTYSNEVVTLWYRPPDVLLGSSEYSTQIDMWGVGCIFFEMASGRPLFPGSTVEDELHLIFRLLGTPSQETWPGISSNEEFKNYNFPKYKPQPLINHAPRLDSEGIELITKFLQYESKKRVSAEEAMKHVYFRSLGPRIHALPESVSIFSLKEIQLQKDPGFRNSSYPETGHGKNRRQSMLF
# UniProt Q01813: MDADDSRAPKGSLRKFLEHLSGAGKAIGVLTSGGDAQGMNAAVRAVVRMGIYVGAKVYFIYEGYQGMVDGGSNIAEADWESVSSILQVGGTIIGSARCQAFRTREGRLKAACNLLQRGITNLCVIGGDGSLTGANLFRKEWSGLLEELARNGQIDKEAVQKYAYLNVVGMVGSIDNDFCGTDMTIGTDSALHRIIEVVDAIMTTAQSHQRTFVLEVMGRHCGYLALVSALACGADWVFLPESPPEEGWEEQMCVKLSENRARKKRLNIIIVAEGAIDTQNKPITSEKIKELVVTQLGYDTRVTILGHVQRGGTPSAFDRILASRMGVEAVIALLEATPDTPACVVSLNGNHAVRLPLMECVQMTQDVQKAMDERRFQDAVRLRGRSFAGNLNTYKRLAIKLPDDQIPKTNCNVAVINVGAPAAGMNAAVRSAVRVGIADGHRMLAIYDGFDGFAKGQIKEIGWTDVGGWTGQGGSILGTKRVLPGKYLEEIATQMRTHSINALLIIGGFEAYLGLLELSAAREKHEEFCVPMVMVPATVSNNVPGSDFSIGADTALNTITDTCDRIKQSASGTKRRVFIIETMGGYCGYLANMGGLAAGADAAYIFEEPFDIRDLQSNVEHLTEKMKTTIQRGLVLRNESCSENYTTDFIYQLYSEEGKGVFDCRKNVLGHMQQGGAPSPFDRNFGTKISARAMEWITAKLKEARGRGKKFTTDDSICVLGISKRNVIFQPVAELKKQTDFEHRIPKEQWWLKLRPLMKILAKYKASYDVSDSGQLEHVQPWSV
# UniProt Q12873: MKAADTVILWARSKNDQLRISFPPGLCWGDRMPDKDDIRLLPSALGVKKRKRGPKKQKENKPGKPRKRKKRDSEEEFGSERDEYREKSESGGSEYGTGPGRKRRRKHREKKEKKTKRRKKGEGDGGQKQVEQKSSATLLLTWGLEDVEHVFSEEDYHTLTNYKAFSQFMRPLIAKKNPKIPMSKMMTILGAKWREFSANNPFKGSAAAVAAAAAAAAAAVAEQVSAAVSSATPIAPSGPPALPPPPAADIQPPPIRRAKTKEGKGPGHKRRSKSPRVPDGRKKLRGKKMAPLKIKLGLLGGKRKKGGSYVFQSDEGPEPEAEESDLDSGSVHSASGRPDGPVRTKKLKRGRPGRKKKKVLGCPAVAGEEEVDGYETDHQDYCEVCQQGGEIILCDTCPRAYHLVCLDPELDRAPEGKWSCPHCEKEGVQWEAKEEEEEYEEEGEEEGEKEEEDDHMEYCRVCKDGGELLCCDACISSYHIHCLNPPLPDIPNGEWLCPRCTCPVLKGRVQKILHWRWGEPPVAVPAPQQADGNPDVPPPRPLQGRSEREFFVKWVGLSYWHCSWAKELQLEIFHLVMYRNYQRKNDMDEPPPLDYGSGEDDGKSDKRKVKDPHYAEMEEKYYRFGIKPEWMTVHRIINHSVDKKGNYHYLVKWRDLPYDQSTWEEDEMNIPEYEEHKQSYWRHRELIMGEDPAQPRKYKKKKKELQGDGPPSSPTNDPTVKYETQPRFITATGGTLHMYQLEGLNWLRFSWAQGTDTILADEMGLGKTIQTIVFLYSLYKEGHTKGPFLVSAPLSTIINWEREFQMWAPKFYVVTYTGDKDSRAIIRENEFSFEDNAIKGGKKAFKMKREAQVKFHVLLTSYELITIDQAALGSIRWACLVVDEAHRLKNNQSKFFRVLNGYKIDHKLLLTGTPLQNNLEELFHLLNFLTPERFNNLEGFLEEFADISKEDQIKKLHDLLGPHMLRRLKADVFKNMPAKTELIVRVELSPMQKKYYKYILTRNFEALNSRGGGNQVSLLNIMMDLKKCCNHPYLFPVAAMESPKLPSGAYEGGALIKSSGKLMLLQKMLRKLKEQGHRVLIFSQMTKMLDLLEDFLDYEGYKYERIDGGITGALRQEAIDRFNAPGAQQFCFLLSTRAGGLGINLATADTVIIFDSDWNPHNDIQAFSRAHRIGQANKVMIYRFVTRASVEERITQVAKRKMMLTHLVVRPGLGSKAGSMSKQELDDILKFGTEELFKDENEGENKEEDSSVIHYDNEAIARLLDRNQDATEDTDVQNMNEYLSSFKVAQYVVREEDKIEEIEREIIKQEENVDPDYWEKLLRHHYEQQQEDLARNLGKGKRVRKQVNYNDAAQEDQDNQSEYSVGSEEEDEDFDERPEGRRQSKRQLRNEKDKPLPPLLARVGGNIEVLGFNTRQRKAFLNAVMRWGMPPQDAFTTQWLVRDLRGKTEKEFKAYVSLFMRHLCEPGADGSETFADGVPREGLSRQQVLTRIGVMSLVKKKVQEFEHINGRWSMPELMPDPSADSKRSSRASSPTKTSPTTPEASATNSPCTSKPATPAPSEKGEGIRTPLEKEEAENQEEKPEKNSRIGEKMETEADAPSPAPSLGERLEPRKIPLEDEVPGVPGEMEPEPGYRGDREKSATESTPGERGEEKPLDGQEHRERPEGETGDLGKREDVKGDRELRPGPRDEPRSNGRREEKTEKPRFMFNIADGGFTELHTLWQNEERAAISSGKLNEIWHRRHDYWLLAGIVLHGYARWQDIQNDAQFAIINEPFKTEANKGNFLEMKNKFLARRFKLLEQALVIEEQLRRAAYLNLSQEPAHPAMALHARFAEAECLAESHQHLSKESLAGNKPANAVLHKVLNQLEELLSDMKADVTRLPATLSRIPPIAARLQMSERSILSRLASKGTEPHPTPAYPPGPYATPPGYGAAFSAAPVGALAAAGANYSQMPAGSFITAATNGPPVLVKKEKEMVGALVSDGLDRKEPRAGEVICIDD
# UniProt P85299, whole entry: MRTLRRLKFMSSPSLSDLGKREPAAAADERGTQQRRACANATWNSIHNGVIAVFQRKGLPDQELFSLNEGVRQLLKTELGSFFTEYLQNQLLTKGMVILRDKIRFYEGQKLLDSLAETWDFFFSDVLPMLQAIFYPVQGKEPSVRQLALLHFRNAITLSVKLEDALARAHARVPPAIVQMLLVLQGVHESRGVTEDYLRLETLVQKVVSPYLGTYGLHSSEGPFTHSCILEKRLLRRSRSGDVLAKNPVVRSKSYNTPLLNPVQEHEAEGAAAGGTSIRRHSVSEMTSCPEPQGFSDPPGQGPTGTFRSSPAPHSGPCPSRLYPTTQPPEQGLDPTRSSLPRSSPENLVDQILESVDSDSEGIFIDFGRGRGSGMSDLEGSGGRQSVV
# UniProt Q12907: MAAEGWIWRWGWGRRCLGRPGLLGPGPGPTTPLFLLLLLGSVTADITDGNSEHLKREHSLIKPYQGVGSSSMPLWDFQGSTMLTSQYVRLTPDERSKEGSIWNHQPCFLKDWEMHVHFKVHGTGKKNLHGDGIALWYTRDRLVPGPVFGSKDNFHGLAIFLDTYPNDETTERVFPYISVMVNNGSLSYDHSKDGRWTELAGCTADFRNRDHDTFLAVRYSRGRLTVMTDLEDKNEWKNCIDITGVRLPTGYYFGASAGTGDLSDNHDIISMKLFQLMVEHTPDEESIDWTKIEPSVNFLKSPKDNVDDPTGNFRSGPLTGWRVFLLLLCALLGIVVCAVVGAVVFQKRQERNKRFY
# UniProt Q05639, whole entry: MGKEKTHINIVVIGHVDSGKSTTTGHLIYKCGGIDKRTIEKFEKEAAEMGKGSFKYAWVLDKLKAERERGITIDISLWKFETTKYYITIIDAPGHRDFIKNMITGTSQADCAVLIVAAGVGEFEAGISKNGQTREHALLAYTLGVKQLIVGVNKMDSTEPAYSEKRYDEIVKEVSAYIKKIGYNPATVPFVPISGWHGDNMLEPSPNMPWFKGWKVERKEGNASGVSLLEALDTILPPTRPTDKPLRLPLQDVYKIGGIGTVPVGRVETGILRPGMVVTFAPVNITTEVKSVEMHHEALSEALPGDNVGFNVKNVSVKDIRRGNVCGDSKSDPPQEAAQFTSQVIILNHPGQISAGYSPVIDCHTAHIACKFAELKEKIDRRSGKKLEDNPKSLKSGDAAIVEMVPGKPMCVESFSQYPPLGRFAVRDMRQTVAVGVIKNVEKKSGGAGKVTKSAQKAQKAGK
# UniProt Q03468, whole entry: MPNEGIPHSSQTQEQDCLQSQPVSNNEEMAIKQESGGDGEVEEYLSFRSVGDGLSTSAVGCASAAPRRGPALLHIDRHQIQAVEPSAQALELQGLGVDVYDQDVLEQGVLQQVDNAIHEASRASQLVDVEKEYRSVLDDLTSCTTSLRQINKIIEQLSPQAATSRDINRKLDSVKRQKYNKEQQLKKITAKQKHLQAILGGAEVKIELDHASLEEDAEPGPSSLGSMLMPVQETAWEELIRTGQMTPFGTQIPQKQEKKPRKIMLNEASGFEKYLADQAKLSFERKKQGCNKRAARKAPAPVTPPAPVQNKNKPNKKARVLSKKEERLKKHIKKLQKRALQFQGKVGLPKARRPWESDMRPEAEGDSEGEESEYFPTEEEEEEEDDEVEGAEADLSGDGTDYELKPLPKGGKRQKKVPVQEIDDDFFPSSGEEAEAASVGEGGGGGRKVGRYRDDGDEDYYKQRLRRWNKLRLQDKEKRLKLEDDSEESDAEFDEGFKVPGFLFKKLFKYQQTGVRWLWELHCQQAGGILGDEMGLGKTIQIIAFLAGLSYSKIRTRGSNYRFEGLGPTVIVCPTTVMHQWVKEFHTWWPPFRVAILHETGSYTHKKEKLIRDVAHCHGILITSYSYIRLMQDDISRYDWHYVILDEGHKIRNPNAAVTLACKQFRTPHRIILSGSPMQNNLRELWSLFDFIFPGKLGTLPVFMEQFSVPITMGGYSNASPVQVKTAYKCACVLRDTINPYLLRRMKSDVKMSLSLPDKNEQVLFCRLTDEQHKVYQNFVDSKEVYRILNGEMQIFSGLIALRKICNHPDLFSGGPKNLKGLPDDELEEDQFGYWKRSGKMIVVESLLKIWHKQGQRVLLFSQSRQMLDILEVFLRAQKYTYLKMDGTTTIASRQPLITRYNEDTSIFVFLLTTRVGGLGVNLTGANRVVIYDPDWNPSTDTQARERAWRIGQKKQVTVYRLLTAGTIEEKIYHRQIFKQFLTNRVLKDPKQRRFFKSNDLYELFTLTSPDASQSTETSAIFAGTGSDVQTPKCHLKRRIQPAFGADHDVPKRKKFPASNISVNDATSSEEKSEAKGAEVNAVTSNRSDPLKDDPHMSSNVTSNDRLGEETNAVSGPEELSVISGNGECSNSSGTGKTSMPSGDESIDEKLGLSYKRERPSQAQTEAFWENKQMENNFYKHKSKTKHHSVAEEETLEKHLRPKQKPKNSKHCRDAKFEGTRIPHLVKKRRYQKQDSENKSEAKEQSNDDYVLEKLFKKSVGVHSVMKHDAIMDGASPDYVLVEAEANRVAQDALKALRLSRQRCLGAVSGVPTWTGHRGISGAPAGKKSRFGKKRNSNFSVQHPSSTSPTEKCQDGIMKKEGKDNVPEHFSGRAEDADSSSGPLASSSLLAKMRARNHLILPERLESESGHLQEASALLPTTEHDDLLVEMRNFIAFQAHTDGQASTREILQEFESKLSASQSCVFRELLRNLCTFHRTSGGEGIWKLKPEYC
# UniProt Q12874: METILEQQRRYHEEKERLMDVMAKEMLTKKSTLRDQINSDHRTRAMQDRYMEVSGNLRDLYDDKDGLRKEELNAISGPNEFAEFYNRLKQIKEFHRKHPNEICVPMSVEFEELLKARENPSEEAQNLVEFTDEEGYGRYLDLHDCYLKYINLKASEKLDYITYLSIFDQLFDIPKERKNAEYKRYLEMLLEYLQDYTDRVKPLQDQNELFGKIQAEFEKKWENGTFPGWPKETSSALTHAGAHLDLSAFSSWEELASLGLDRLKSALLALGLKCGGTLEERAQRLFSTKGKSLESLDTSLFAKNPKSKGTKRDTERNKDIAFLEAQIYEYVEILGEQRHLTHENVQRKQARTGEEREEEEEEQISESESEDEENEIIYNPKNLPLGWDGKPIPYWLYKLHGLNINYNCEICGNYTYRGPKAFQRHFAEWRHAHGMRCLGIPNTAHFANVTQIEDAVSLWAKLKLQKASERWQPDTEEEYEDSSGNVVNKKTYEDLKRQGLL
# Some of the results follow. Most values lie at the level of the controls, where differences are scatter.
# Compound: Cc1nc(Nc2ncc(C(=O)Nc3c(C)cccc3Cl)s2)cc(N2CCN(CCO)CC2)n1 [dasatinib]
# Test: log2 fold change of tryptic peptide abundance, ligand vs vehicle (limited proteolysis) (log2 ratio); higher = more trypsin-susceptible (destabilized)
# Conditions: ligand concentration: 5 uM; sample: K562 cleared lysate
row,Target,log2 fold change
1,"LMNB2 (peptide sequence: ISEKEEVTTR, peptide start residue: 78) (UniProt Q03252)",-1.02
2,"PLP2 (peptide sequence: HTAAPTDPADGPV, peptide start residue: 140) (UniProt Q04941)",0.000774
3,"UniProt Q00537 (peptide sequence: RPHSVIGGSLGSFMAMPR, peptide start residue: 72)",0.398
4,"UniProt Q12872 (peptide sequence: HSLPSAYR, peptide start residue: 790)",-0.103
5,"PFKP (peptide sequence: FLEHLSGAGK, peptide start residue: 16) (UniProt Q01813)",-0.218
6,"MEF2A (peptide sequence: YTEYNEPHESR, peptide start residue: 69) (UniProt Q02078)",-0.653
7,"NCBP1 (peptide sequence: TLAESDEGKLHVLR, peptide start residue: 575) (UniProt Q09161)",-0.208
8,"CDK6 (peptide sequence: CLTFNPAK, peptide start residue: 280) (UniProt Q00534)",0.113
9,"CHD3 (peptide sequence: EKEMVGALVSDGLDRK, peptide start residue: 1973) (UniProt Q12873)",0.569
10,"NFKB2 (peptide sequence: NMMGTMIQK, peptide start residue: 145) (UniProt Q00653)",-1.06
11,"TIAL1 (peptide sequence: DTSNHFHVFVGDLSPEITTEDIK, peptide start residue: 92) (UniProt Q01085)",0.0934
12,"IRF9 (peptide sequence: GRMDVAEPYK, peptide start residue: 101) (UniProt Q00978)",0.434
13,"UniProt P85299 (peptide sequence: GSGMSDLEGSGGR, peptide start residue: 372)",0.433
14,"NSUN2 (peptide sequence: LSSPCIMVVNHDASSIPR, peptide start residue: 231) (UniProt Q08J23)",0.105
15,"LMAN2 (peptide sequence: NRDHDTFLAVR, peptide start residue: 208) (UniProt Q12907)",-0.486
16,"TROAP (peptide sequence: SCLTAIHCFHEAR, peptide start residue: 717) (UniProt Q12815)",-0.523
17,"EEF1A2 (peptide sequence: QTVAVGVIKNVEKK, peptide start residue: 431) (UniProt Q05639)",0.42
18,"PLCB3 (peptide sequence: RYQEFQNR, peptide start residue: 1030) (UniProt Q01970)",-1.32
19,"ERCC6 (peptide sequence: ASQLVDVEK, peptide start residue: 123) (UniProt Q03468)",0.333
20,"SF3A3 (peptide sequence: YHEEKER, peptide start residue: 11) (UniProt Q12874)",-0.202
21,"UniProt P83731 (peptide sequence: TAMAAAKAPTK, peptide start residue: 125)",-0.214
22,"RPL6 (peptide sequence: YYPTEDVPR, peptide start residue: 115) (UniProt Q02878)",0.051
23,"UniProt Q07912 (peptide sequence: AGPCILPIVR, peptide start residue: 840)",0.119
24,"TNFAIP2 (peptide sequence: GQLEAARPLLALER, peptide start residue: 89) (UniProt Q03169)",0.388
25,"APLP2 (peptide sequence: HYQHVLAVDPEK, peptide start residue: 510) (UniProt Q06481)",0.3
26,"UniProt Q08623 (peptide sequence: FSPPPAMEK, peptide start residue: 162)",-0.0708
27,"SP4 (peptide sequence: FECPECSKR, peptide start residue: 707) (UniProt Q02446)",-0.866

# 2 entries from above, bar-delimited:
row | Target | log2 fold change
13 | UniProt P85299 (peptide sequence: GSGMSDLEGSGGR, peptide start residue: 372) | 0.433
20 | SF3A3 (peptide sequence: YHEEKER, peptide start residue: 11) (UniProt Q12874) | -0.202
